Results taken from patent US8772237B2, “Compositions and methods for counteracting effects of reactive oxygen species and free radicals” (Ischemix, Inc., priority 1999, dated 2014).
For part of these data: For at least one compound, name, drawing or mass did not settle the structure. Some results were stated once for a whole list of compounds, not compound by compound. Ends that are not written are not given here.

Key:
[1] = test system: transcription factor AP-1; assay: Electrophoretic mobility shift assay (EMSA) for AP-1 activation in primary rat neurons / cortical cultures; format: cell-based
Description: Nuclear extracts for electrophoretic mobility shift assays (EMSAs) were prepared as described previously (Adams et al., J. Leukocyte Biol., 62: 865-873 (1997)) using 1.0-2.0×10^7 cells per sample. All buffers were freshly supplemented with dithiothreitol (DTT, 0.5 mM), protease inhibitors: PMSF (0.5 mM), chymostatin, peptstatin-A, aprotinin, antipain, leupeptin (each at 1 μg/ml), and phosphatase inhibitors: NaF (10 mM), ZnCl2 (1 mM), sodium orthovanadate (1 mM), and sodium pyrophosphate (5 mM). Aliquots of the final dialyzates were stored at −80° C. and discarded after use.
AP-1 transcription factor activation was assayed using an electrophoretic mobility shift assay (EMSA), as described by Adams et al., J. Leukoc. Biol., 62:865-873 (1997)). […] Bands were visualized by autoradiography at −80° C. with one intensifying screen and quantified by laser densitometry. […]
Primary cortical cell cultures were grown to confluence and used in in vitro cultures for determining the effects of various representative peptide compounds on upregulation of AP-1. […] Extracts were prepared from the nuclei isolated from the primary culture homogenates, purified, and analyzed for the presence of specific transcription factors using the electrophoretic mobility shift assay (EMSA) method. […]

[2] = test system: SOD gene expression; assay: Western immunoblot of SOD in rat fibroblasts; format: cell-based; settings: 10 ng/ml, 6 hours

Row | Molecule | activation / upregulation of AP-1 (in words) [1] | increase in SOD gene expression relative to untreated cells [2]
1 | CC/C=C\C/C=C\C/C=C\C/C=C\C/C=C\C/C=C\CCC(=O)O [DHA, docosahexaenoic acid, reference compound] | did not activate AP-1 | 
2 | Ac-DGDGDFA [CMX-9963] |  | ≥ 20 fold
3 | [Ac]-Asp Gly Asp [CMX-9967] |  | ≥ 20 fold
